Assay results published in US20250281460A1, “PEGYLATED BILIRUBIN FOR THE TREATMENT OF […], OBESITY, FATTY LIVER DISEASE, CARDIOVASCULAR DISEASES AND TYPE II DIABETES” (The University of Toledo, priority 2019, published 2025).
At least one compound was matched to its structure with a doubt left.

Key:
3T3-L1-WAT adipocytes = experiment: SeaHorse oxygen consumption rate in fully differentiated 3T3-L1-WAT adipocytes; assay type: cell-based, mouse; details: 50 μM biliverdin, 50 μM WY 14,463, 10 μM rosiglitazone
Experimental: To compare the effects of bilirubin on the activation of PPARα or PPARγ on mitochondrial function, a SeaHorse XFe96 Analyzer was used to measure oxygen consumption rate (OCR) in fully differentiated 3T3-L1-WAT adipocytes treated with 50 μM biliverdin, 50 μM WY 14,463 (PPARα agonist), or 10 μM rosiglitazone (PPARγ-agonist). […]. Rosiglitazone, but not biliverdin or WY 14,643, enhanced the coupling efficiency. None of the ligands affected non-mitochondrial respiration, basal respiration, or proton leak.
Cellular respiration was quantified using the Seahorse Extracellular Flux Analyzer XF-96 (Agilent Technologies, Cedar Creek, TX). The Seahorse XF Cell Mito Stress Test Kit (Agilent Technologies, Cat #103015-100) was used for analysis of cellular respiration. BAT or 3T3-L1 cells were seeded on a XF96 cell culture microplate (Agilent 101085-004) at 20,000 cells per well. Cells were then differentiated as previously described for 9 days. […] The oxygen consumption rate (OCR) and extracellular acidification rate (ECAR) were used to quantify the cellular energy phenotype of the cells. After treatment, cells were washed twice with Seahorse Bioscience Assay Media (XF Base media with 25 mM Glucose, 2 mM […], and 1 mM Sodium Pyruvate) then incubated with the buffer for 1 hour in a non-CO2 incubator. […]

BAT cells [1] = experiment: SeaHorse analysis in murine BAT cell line (wild-type); assay type: cell-based
BAT cells [2] = experiment: Real-time PCR in differentiated BAT cells; assay type: cell-based, murine; details: 50 μM biliverdin, 50 μM WY14,463, 10 μM rosiglitazone, 24 hrs
Experimental: Total RNA was extracted from mouse tissues using the miRNeasy Mini Kit (Qiagen). Total RNA was read on a NanoDrop 2000 spectrophotometer (Thermo Fisher Scientific, Wilmington, DE) and cDNA was synthesized using High Capacity cDNA Reverse Transcription Kit (Applied Biosystems). PCR amplification of the cDNA was performed by quantitative real-time PCR using TrueAmp SYBR Green qPCR SuperMix (Advance Bioscience). The thermocycling protocol consisted of 3 min at 95° C., 48 cycles of 15 sec at 95° C., 30 sec at 60° C., and based on primer size 0 to 30 sec at 72° C. and finished with a melting curve ranging from 60-95° C. to allow distinction of specific products. Normalization was performed in separate reactions with primers to 36B4.

`CN(CCOc1ccc(CC2SC(=O)NC2=O)cc1)c1ccccn1` (centres unmarked) [rosiglitazone] was tested, and the ATP production (3T3-L1-WAT adipocytes) was “not observed”, the coupling efficiency (3T3-L1-WAT adipocytes) was “enhanced” and the mitochondrial function (BAT cells [1]) was “did not affect”. For the same compound, the “Adrb3 mRNA” value (BAT cells [2]) was “significant increase” and the “Ucp1 mRNA” value (BAT cells [2]) was “significant increase”.
